In PubChem BioAssay AID2685 (National Center for Advancing Translational Sciences (NCATS), 2010) one finds AC50 and cell number change data, which are given here for 59 compounds.

Some of the results follow. The main result of the screen is listed elsewhere. These columns were measured beside it and carry no call. Compounds called inactive in the main read-out are mostly missing here. Words in brackets tell the shape of the fitted curve; partial curves, single points and poor fits give uncertain potencies. Where a SMILES comes first, the peptide text is derived from it. The star is where a group is joined. Boc = CC(C)(C)OC(=O)*; Bn = c1ccc(C*)cc1

The test is described as follows: qHTS Assay for Lipid Storage Modulators in Drosophila S3 Cells.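 For cell number change: cells counted by Cell Tracker Red CMTPX staining in the red channel.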 The conditions noted are these: BODIPY lipid droplet fluorescence, 18-24 h; for cell number change: measured here: cell count max response, cells fed with added oleic acid. The method in brief: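 Laser-scanning cytometry quantifies lipid droplet accumulation (500–530 nm total intensity; droplet/cell object ratio) in oleic acid-fed (400 uM added) Drosophila S3 cells treated with a concentration series. 20 uM Triacsin C defined 100% inhibition.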

Where [1] appears, read: measured here: cell number channel AC50, cells fed with added oleic acid.
The mark [2] stands for this setting: measured here: lipid fluorescence (Fed channel) AC50, cells fed with added oleic acid.

Consider `COc1cc(/C=N/NC(=O)C(=O)NCC2CCCO2)ccc1OCC(=O)N1CCOCC1` (stereo not drawn), for which the AC50 was 6.51 µM [rising, single point] under setting [1] and 0.58 µM [rising, single point] under setting [2].
As for `CCOc1ccc(C(C)C)cc1S(=O)(=O)N1CCOCC1`, the cell number change came to 24.4%. Moreover, under setting [2], the concentration at half-maximal activity (AC50) is 1.3 µM [rising, full curve, poor fit].
For the compound `Cc1cccc(OC(C)C(=O)Nc2cc(S(=O)(=O)N3CCCCC3)ccc2C)c1` (stereo not drawn), the cell number change is -23.2%. Further, the AC50 under setting [2] was 11.6 µM [falling, partial curve, poor fit].
In the case of `O=C(Nc1cccc(S(=O)(=O)Nc2ccccc2F)c1)c1ccc2ccccc2n1`, the cell number change was 11.6%. Under setting [1], the AC50 is 0.00461 µM [rising, full curve, poor fit].
In the case of `CC1CCN(C(=O)COC(=O)CCCN2C(=O)c3cccc4cccc(c34)C2=O)CC1`, the cell number change was -24.9%. The half-maximal activity concentration (AC50) under setting [2] is 0.58 µM [rising, single point].
`CCC1CCCCN1CCCNC(=O)Cn1ncn2nc(-c3ccc(OC)cc3)cc2c1=O` (stereo not drawn): the cell number change stood at 15.1%.
As for `CN(Cc1ccccc1)C(=O)c1ccccc1NC(=O)C1=CSCCO1`, the cell number change is -13.5%. Further, under setting [2], the AC50 was 29.1 µM [rising, single point].
For the compound `CCn1c(C)nc2cc(C(=O)N/N=C/c3cccc(O)c3O)ccc21`, the cell number change was -28.2%. The AC50 under setting [2] was 29.1 µM [falling, single point].
Turning to `O=C(NCCN1CCN(c2cccc(Cl)c2)CC1)Nc1ccccc1`, the cell number change is 12.5%.
For `Cc1ccc(OCC(=O)N2N=C(c3ccncc3)CC2(O)C(F)(F)F)cc1C` (stereo not drawn), the cell number change amounted to 23.4%. For the same compound, the AC50 under setting [1] is 1.03 µM [rising, partial curve]. Also, under setting [2], the AC50 is 0.231 µM [rising, full curve].
Turning to `O=C(CNC(=O)c1ccco1)OCC(=O)c1ccccc1`, the cell number change was -49.6%.
For the compound `COc1ccc(OCCCc2c(C)n[nH]c2C)cc1`, the cell number change was -34.5%.
With `CN(C)c1ccc(C2CC(c3cccc(NS(C)(=O)=O)c3)=NN2C(=O)c2ccccc2)cc1` (stereo not drawn), the cell number change is -7.58%. The AC50 under setting [2] was 0.259 µM [rising, partial curve, poor fit].
For `CC(C)(C)c1ccc(C(=O)N/N=C/c2cccc(Cl)c2)cc1`, the AC50 is 1.46 µM [rising, full curve] under setting [1] and 0.731 µM [rising, full curve] under setting [2].
Regarding `CC(C)COc1cccc(C(=O)N2CCN(C(=O)c3ccco3)CC2)c1`, the cell number change is -38.1%. Further, the AC50 under setting [1] was 18.4 µM [falling, single point].
Consider `CC1(C)C=Cc2c(c3ccccc3[nH]c2=O)O1`, for which the cell number change was -21.2%. In addition, under setting [2], the concentration at half-maximal activity (AC50) was 1.84 µM [rising, single point].
With `CCOC(=O)N1CCC(N2Cc3cccc(C(=O)Nc4c(C)cccc4CC)c3C2=O)CC1`, the cell number change came to 6.45%. In addition, the half-maximal activity concentration (AC50) under setting [2] was 16.4 µM [falling, partial curve].
Turning to `Cc1ccc(C)c(NC(=O)C(NCC(C)(C)N2CCOCC2)c2ccccc2)c1` (stereo not drawn), the cell number change was -21.6%. Moreover, the AC50 under setting [2] was 29.1 µM [falling, single point].
`COc1cc(NC(=O)C2CC(=O)NC3=C2C(=O)CC(C)(C)C3)c(OC)cc1Cl` (stereo not drawn): the cell number change amounted to 4.89%.
As for `Cc1nc2nc(-c3ccccc3)cc(=O)n2[nH]1`, the cell number change was determined as 2.16%. Moreover, the concentration at half-maximal activity (AC50) under setting [2] was 0.517 µM [falling, full curve, poor fit].
As for `O=C(NC1CCCC1)C(c1ccncc1)N(C(=O)c1csnn1)c1ccc(F)cc1` (stereo not drawn), the cell number change is -21%.
Turning to `COc1ccc(OC)c2sc(NC(=O)C(C)C)nc12`, the AC50 under setting [2] is 6.51 µM [rising, single point].
As for `COC(=O)c1ccc(NC(=O)CSc2nc3ncccc3[nH]2)cc1`, the cell number change was -44.3%. Besides, the concentration at half-maximal activity (AC50) under setting [1] was 2.91 µM [rising, partial curve]. Further, the AC50 under setting [2] was 23.1 µM [falling, single point].
For `C=CCOc1c(CNc2ccc(C(=O)O)cc2)cccc1OC`, the cell number change was -8.83%.
As for `Cc1ccccc1C(=O)N1CCC(C(=O)NC2CCCCC2)CC1`, the cell number change was -3.95%. In addition, under setting [2], the AC50 was 35.5 µM [rising, single point].
In the case of `N#CC1(NC(=O)COc2ccc3ccc(=O)oc3c2)CCCCC1`, the cell number change stood at 35.4%. For the same compound, the AC50 under setting [1] is 18.4 µM [rising, single point].
`CC(C)CC(c1nnnn1C(C)(C)C)N1CCN(C2CCCC2)CC1` (stereo not drawn): the cell number change was -46.2%. Also, the AC50 under setting [1] is 5.8 µM [falling, partial curve]. The half-maximal activity concentration (AC50) under setting [2] was 29.1 µM [falling, single point].
Take `O=C(O)c1ccccc1-c1ccccc1C(=O)Nc1cccc(O)c1`: the cell number change is 16.1%. Under setting [2], the half-maximal activity concentration (AC50) is 3.66 µM [rising, single point].
Regarding `CN(CC(=O)Nc1ccc(F)cc1)c1ccc(S(=O)(=O)N2CCCCC2)cc1[N+](=O)[O-]`, the cell number change is -22.2%.
For the compound `Cc1ccc(-c2csc(NC(=O)CSc3nc(C)cs3)n2)cc1`, the cell number change was -61.9%. In addition, the AC50 under setting [1] is 7.31 µM [falling, partial curve].
Consider `C=CCn1c(CSCc2ccccc2)nnc1SCC(=O)NCc1ccccc1`, for which the cell number change is -8.62%.
With `O=C(c1ccccc1F)N1CCN(C2CCC(c3ccccc3)CC2)CC1` (stereo not drawn), the cell number change is -8.16%. Under setting [1], the half-maximal activity concentration (AC50) is 6.51 µM [falling, single point]. Further, the half-maximal activity concentration (AC50) under setting [2] is 6.51 µM [falling, single point].
In the case of `COc1ccc(Cl)cc1NC(=O)Nc1cnccn1`, the cell number change was -7.43%. Under setting [2], the half-maximal activity concentration (AC50) is 0.58 µM [rising, single point].
Take `CCCCN1CC(=O)N2[C@H]3c4cc(Br)ccc4OC[C@@H]3[C@H](C(=O)OCC)[C@]2(C)C1=O`: the cell number change came out at 2.01%.
In the case of `Cc1ccc(N2C(N)=C(C#N)C(c3cccs3)C3=C2CC(C)(C)CC3=O)cc1` (stereo not drawn), the AC50 under setting [1] is 2.91 µM [rising, partial curve] and the AC50 under setting [2] was 0.259 µM [rising, partial curve, poor fit].
`O=C(Cc1ccc([N+](=O)[O-])cc1)NNC(=O)c1cccs1`: the cell number change stood at 6.94%.
On to `CCN1CCCC(OC(=O)c2cc(-c3ccc(C)cc3)nc3ccccc23)C1` (stereo not drawn), for which the cell number change is -11.5%.
As to `CNc1c(NS(=O)(=O)c2ccc(Cl)s2)c(=O)oc2ccccc12`, the cell number change was -10.1%. Moreover, the AC50 under setting [2] was 6.51 µM [falling, single point].
As for `Cc1ccc2cc(C#N)c(N3CCN(C(=O)c4ccccc4)CC3)nc2c1`, the cell number change is -16.2%. Further, the AC50 under setting [2] was 10.3 µM [falling, single point].
With `COc1ccc(C2NN=C(c3c[nH]c4ccccc34)C2O)cc1` (stereo not drawn), the concentration at half-maximal activity (AC50) under setting [2] is 29.1 µM [falling, single point].
As to `O=c1oc2ccccc2cc1N1CCOCC1`, the half-maximal activity concentration (AC50) by setting is: under setting [1], 6.51 µM [rising, partial curve, poor fit]; under setting [2], 6.51 µM [rising, partial curve, poor fit].
As to `Cc1ccc(C(=O)C2=C(O)C(=O)N(Cc3ccco3)C2c2cccc(Cl)c2)o1` (stereo not drawn), the cell number change came to 20.8%. Besides, under setting [2], the AC50 is 6.51 µM [rising, single point].
For the compound `CCn1c(Cc2ccccc2)nnc1SCC(=O)Nc1ccc2c(c1)OCCO2`, the concentration at half-maximal activity (AC50) under setting [1] is 3.26 µM [rising, single point].
For the compound `CSc1ccccc1NC(=O)CN1CCN(c2ccccn2)CC1`, the cell number change is -13.9%.
Consider `CN(CC(=O)Nc1ccc(Cl)c(C(F)(F)F)c1)C(=O)C1CC(=O)N(CCc2ccccc2)C1` (stereo not drawn), for which the cell number change is -50%. In addition, the AC50 under setting [1] is 2.31 µM [falling, full curve, poor fit]. Besides, under setting [2], the concentration at half-maximal activity (AC50) was 29.1 µM [falling, single point].
Consider `CCOc1ccccc1NC(=O)CSc1nncc2ccccc12`, for which the cell number change is 8.73%. In addition, under setting [2], the AC50 was 0.58 µM [rising, single point].
On to `C[C@H](NC(=O)C1CC(=O)N(c2ccc3c(c2)OCO3)C1)C(=O)NC1CCCC1` (stereo partly drawn), for which the cell number change was found to be 24.2%. Besides, the concentration at half-maximal activity (AC50) under setting [2] is 29.1 µM [rising, single point].
In the case of `COc1ccc(OC)c(S(=O)(=O)Nc2ccc3oc4c(c3c2)C(=O)CCC4)c1`, the concentration at half-maximal activity (AC50) reads like this: under setting [1], 3.66 µM [rising, partial curve, poor fit]; under setting [2], 0.116 µM [rising, full curve, poor fit].
`CC1=NN(Cc2ccccc2)C(=O)/C1=C/c1ccc(N(C)C)cc1`: the cell number change was -73.5%.
Take `O=C(COc1ccc(F)cc1F)Nc1cccnc1`: the cell number change was 20.7%. Further, the AC50 under setting [2] was 0.00517 µM [rising, full curve, poor fit].
Consider `O=C(N/N=C/c1cc([N+](=O)[O-])ccc1O)NC12CC3CC(CC(C3)C1)C2`, for which the cell number change worked out at 3.37%. For the same compound, under setting [2], the AC50 was 3.26 µM [falling, single point].
In the case of `CC(=O)c1ccc(N2CCN(S(=O)(=O)c3ccc4ccccc4c3)CC2)cc1`, the cell number change is 3.62%. Further, under setting [1], the half-maximal activity concentration (AC50) is 4.61 µM [falling, single point]. The AC50 under setting [2] was 6.51 µM [falling, single point].
On to `O=C(O)c1cc(O)c2c(c1)[C@H]([C@H]1c3cc(C(=O)O)cc(O)c3C(=O)c3c(O[C@@H]4O[C@H](CO)[C@@H](O)[C@H](O)[C@H]4O)cccc31)c1cccc(OC3O[C@H](CO)[C@@H](O)[C@H](O)[C@H]3O)c1C2=O` (stereo partly drawn), for which the cell number change is 1.15%. Also, the AC50 under setting [2] was 14.6 µM [rising, partial curve].
Take `COCC(=O)N1CCCC(C(=O)c2ccc(Oc3ccccc3)cc2)C1` (stereo not drawn): the cell number change is -1.55%. For the same compound, the half-maximal activity concentration (AC50) under setting [2] was 0.103 µM [falling, full curve, poor fit].
`O=C(CSC(=S)N1CCCCC1)Nc1nc(-c2ccccc2)c(-c2ccccc2)o1`: the cell number change was -12.8%. In addition, under setting [2], the half-maximal activity concentration (AC50) is 18.4 µM [falling, single point].
With `CC(C)CC(NC(=O)C(Cc1ccc(OCc2ccccc2)cc1)NC(=O)OC(C)(C)C)C(N)=O` (stereo not drawn) (Boc-Tyr(Bn)-Leu-NH2; configuration not given here), the cell number change stood at 19.1%. Under setting [2], the concentration at half-maximal activity (AC50) was 29.1 µM [falling, single point].
Regarding `Cc1ccc(-n2nc(C)c3c2OC(N)=C(C#N)C3c2ccc(F)cc2)cc1` (stereo not drawn), the cell number change is -33.9%. Further, under setting [1], the AC50 is 0.0103 µM [falling, full curve]. The AC50 under setting [2] was 0.0731 µM [falling, full curve].
Regarding `O=C(c1ccc(Cl)c(S(=O)(=O)N2CCOCC2)c1)N1CCN(c2ccccn2)CC1`, the cell number change was -19%. Further, the half-maximal activity concentration (AC50) under setting [2] is 29.1 µM [falling, single point].
With `O=C(Cc1ccc(S(=O)(=O)N2CCOCC2)s1)Nc1ccccc1N1CCOCC1`, the cell number change was -5.04%. Moreover, the half-maximal activity concentration (AC50) under setting [1] is 0.116 µM [rising, full curve, poor fit].
